# Results from patent publication US20210267979A1, “THERAPEUTIC AGENT FOR TREATING DIFFUSE GASTRIC CANCER” (KANAZAWA MEDICAL UNIVERSITY, priority 2018, published 2021).
# At least one compound was matched to its structure with a doubt left.
# Test system: NUGC4 cells
# Assay: Survival of Balb/c nu/nu mice intraperitoneally transplanted with diffuse gastric cancer cells
# Assay type: in vivo, Balb/c nu/nu mouse
# Conditions: NUGC4 intraperitoneal transplant; oral administration from day 21 for 4 weeks, then 4 weeks observation; control mice all died within 7 weeks
compound,measurement,value
"CC(=O)Nc1cccc(-n2c(=O)n(C3CC3)c(=O)c3c(Nc4ccc(I)cc4F)n(C)c(=O)c(C)c32)c1 [Trametinib, trametinib]",Survival time as compared with the control group,prolonged survival times
